Measurements: PubChem BioAssay AID504648 (National Center for Advancing Translational Sciences (NCATS), 2011)
About 610 (0.16%) of roughly 390,000 compounds were called active. This list was built around the results that the source calls inconclusive (neither active nor inactive); the mix of calls is not that of the screen. Calls come from the whole dose curve; as a rule, active = well fitted inhibition curve with a large enough effect; inconclusive = small, poorly fitted or top-dose-only effect, or effect the other way, or another doubt; inactive = no such curve, though single readings can be large or run the other way. Potencies beside an inconclusive call are fits to weak or partial responses and may not hold up.

Experiment: Nrf2 qHTS screen for inhibitors: counterscreen for cytotoxicity
Settings: A549 ARE-Fluc cells, CellTiter-Fluor viability, 18-24 h; series mostly up to 46 µM
Summary of the method: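 A549 ARE_Fluc cells in 5% FBS OPTI-MEM were exposed to compounds in concentration-response for 18-24 h at 37 deg C. Viability was read by CellTiter-Fluor fluorescence (Ex 405/Em 525) after 30 min, before the luciferase read.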
Potency is the fitted concentration of half-maximal effect.

SMILES | Potency
CCOC(=O)c1c(-c2ccccc2)c2cc(OC)ccc2n1CCCN(C)C | inactive
CC(C)C[C@@H](CN1CCC[C@@H]1CN1C(=O)C(=O)NC[C@@H]1Cc1ccccc1)N1C[C@H](Cc2ccccc2)N(CC2CCCCCC2)C(=O)C1=O | inconclusive: 18.4 µM [falling, single point]
CCCCCCSc1cccc(-c2nc3cc(C)ccn3c2NC2CCCCC2)c1 | inconclusive: 20.6 µM [falling, single point]
CCCCc1ccc(NC2=NCC(=O)N2CCc2ccccc2)cc1 | inactive
Cn1cc(C(=O)c2ccc(Cl)cc2)cc1-c1nc2ccccc2n1C | inconclusive: 32.6 µM [falling, partial curve, poor fit]
O=C(CCCCn1c(=O)[nH]c2ccsc2c1=O)N1CCN(c2cccc(C(F)(F)F)c2)CC1 | inactive
C(=N\Nc1nc2ccccc2s1)/c1ccccn1 | inactive
O=C(O)c1ccccc1Nc1ccc2nonc2c1[N+](=O)[O-] | inconclusive: 16.4 µM [falling, partial curve, poor fit]
COc1ccc(CNC(=O)C2CCCN(S(=O)(=O)N(C)c3ccc(F)cc3)C2)cc1OC (centres undefined) | inactive
COCCN(CC(=O)NC1CCCCC1)C(=O)/C=C/C(=O)c1ccc(OC)cc1O | inconclusive: 23.1 µM [falling, single point]
CCC(C)(C)c1ccc(OCCCC[n+]2cccc(C)c2)c(C(C)(C)CC)c1 | inconclusive: 29.1 µM [falling, single point]
CN(C)C(=O)CCc1ccc2c3c([nH]c2c1)[C@]1(CCC2CCCC2)[C@@H](C(=O)N2CCOCC2)C[C@H](CC(=O)NCCC2=CCCCC2)C(=O)N1CC3 | inconclusive: 29.1 µM [falling, partial curve, poor fit]
CC1=C(C(=O)OC(C)(C)C)C(c2ccco2)C(C#N)=C(N)O1 (centres undefined) | inconclusive: 3.26 µM [activator, partial curve, poor fit]
CSc1ccccc1C(=O)Nc1nc2ccccc2[nH]1 | inactive
CCOc1ccccc1NC(=O)C1CC2CCCC(C1)C2=O (centres undefined) | inconclusive: 23.1 µM [activator, partial curve, poor fit]
COc1cc(C2C(C#N)=C(N)Oc3cc4c(cc32)OCO4)cc(OC)c1OC (centres undefined) | inconclusive: 0.116 µM [falling, full curve]
CCN1CCN(C(c2cccs2)C(C)NC(=O)c2cccc(OC)c2OC)CC1 (centres undefined) | inconclusive: 18.4 µM [activator, single point]
Cc1nnc2c3ccccc3nc(N3CCN(c4ccccc4)CC3)n12 | inactive
CCn1nc(C)c(Br)c1-c1nc(-c2cccc(C)c2)no1 | inconclusive: 5.17 µM [activator, full curve, poor fit]
COc1cc(OC)cc(C(=O)Nc2ccccc2-c2nnn(CC(=O)Nc3cc(C)on3)n2)c1 | inactive
CCCn1c(=O)c(C(=O)NNC(=O)c2ccccc2Cl)c(O)c2ccccc21 | inconclusive: 29.1 µM [falling, partial curve, poor fit]
C(=N\Nc1nc(Nc2ccccc2)nc(N2CCOCC2)n1)/c1c[nH]c2ccccc12 | inconclusive: 10.3 µM [falling, partial curve, poor fit]

SMILES | Potency
CCN(CCCNC(=O)C1CCN(S(=O)(=O)N2CCOCC2)CC1)c1cccc(C)c1 | inconclusive: 29.1 µM [activator, partial curve, poor fit]
CCOC(=O)c1c(C)[nH]c(C(=O)OCC(=O)N2c3ccccc3CC2C)c1C (centres undefined) | inactive
CCOC(=O)N1CCN(c2ncc3c(n2)CC(c2ccc(OC)c(OC)c2)CC3=O)CC1 (centres undefined) | inactive
Cc1ccc(C2=NN(C(=O)c3cccs3)C(c3ccccc3O)C2)cc1 (centres undefined) | inconclusive: 18.4 µM [falling, single point]
CCCCCn1c(CN2CCCCC2C)nc2c1c(=O)n(C)c(=O)n2C (centres undefined) | inconclusive: 20.6 µM [activator, partial curve, poor fit]
Cc1cc(C)cc(N2C(=O)CSC23C(=O)N(CC(=O)NC2CCCCC2)c2ccccc23)c1 (centres undefined) | inconclusive: 29.1 µM [falling, partial curve, poor fit]
CCCOCC(O)CC(Cc1ccccc1)C(=O)NN (centres undefined) | inconclusive: 29.1 µM [falling, single point]
CCC(=NCCc1c(C)[nH]c2ccc(C)cc12)C1=C(O)CC(c2ccccc2)CC1=O (centres undefined) | inconclusive: 0.651 µM [falling, partial curve, poor fit]
O=[N+]([O-])c1ccc(N(c2ccccc2)c2ccccc2)cc1 | inconclusive: 5.8 µM [activator, full curve]
CCCN1CCc2c(sc(NC(=O)CCS(=O)(=O)c3ccccc3)c2C(=O)OC)C1 | inconclusive: 32.6 µM [falling, partial curve, poor fit]
COc1ccccc1NC(=S)N/N=C1\CC(C)(C)Oc2ccc(O)cc21 | inactive
COc1ccc(C2CC(c3ccncc3)=NN2c2ccc(S(N)(=O)=O)cc2)cc1 (centres undefined) | inconclusive: 20.6 µM [activator, single point]
O=C(N/N=C/c1ccoc1)c1cc(O)cc(O)c1 | inconclusive: 29.1 µM [activator, single point]
N=C(N)SCc1ccc(Cl)cc1Cl | inconclusive: 20.6 µM [falling, single point]
O=C(Nc1cc(S(=O)(=O)Nc2ccc(Cl)cc2)ccc1N1CCCCC1)c1ccc(F)cc1 | inconclusive: 18.4 µM [falling, single point]
Cc1ccc(-c2cn3c(n2)sc2cc(C(=O)NC4CCCCCC4)ccc23)cc1 | inactive
COCCCNC(=O)C1CCN(Cc2cc3ccccc3n2Cc2cccc(Cl)c2)CC1 | inactive
O=C(Cc1ccc(-n2c(=O)c3ccccc3n(Cc3ccccc3F)c2=O)cc1)NCC1CCCO1 (centres undefined) | inactive
O=S(=O)(Nc1nc2n(n1)C(c1ccc(F)cc1)C=C(c1ccc(Cl)cc1)N2)c1ccccc1 (centres undefined) | inconclusive: 10.3 µM [activator, partial curve, poor fit]
Cc1ccc(NS(=O)(=O)c2ccc3nc(-c4ccccc4)[nH]c3c2)cc1Cl | inconclusive: 29.1 µM [falling, single point]
COc1ccc(NS(=O)(=O)c2ccc3c(c2)CC(C)N3C(=O)C2CCC2)cc1OC (centres undefined) | inconclusive: 16.4 µM [falling, partial curve, poor fit]
O=c1c2c(nc3cc(-c4ccc(F)cc4)[nH]n13)CCCC2 | inactive

SMILES | Potency
N/C(=N\OC(=O)c1ccccc1Cl)c1ccncc1 | inactive
O=S1(=O)N=C(Sc2cccc3cccnc23)c2ccccc21 | inconclusive: 29.1 µM [falling, single point]
NC(=S)N/N=C\c1ccc(-c2cccc(Cl)c2Cl)o1 | inconclusive: 32.6 µM [activator, partial curve, poor fit]
O=C(CNC(=O)c1ccc2c(=O)n3c(nc2c1)CCC3)Nc1ccc(F)c(F)c1 | inconclusive: 29.1 µM [activator, partial curve, poor fit]
O=C(c1cccc(S(=O)(=O)NCc2ccccc2)c1)N1CCN(c2ccc(F)cc2)CC1 | inconclusive: 25.9 µM [falling, partial curve, poor fit]
CCc1cc(=O)oc2c(C)c(O)c(CN3CCCCC3)cc12 | inconclusive: 16.4 µM [activator, single point]
O=C(/C=C/c1cccs1)Nc1nc(-c2ccccc2)cs1 | inconclusive: 18.4 µM [falling, single point]
O=[N+]([O-])c1ccc(Sc2cccc[n+]2[O-])c2nonc12 | active: 18.4 µM
Cc1nn(C)c2c1c(-c1ccccc1)cc(=O)n2Cc1ccc(F)cc1Cl | inconclusive: 7.31 µM [activator, partial curve, poor fit]
CN(C)S(=O)(=O)c1cccc(NC(=O)c2cccc(S(=O)(=O)N3CCCCCC3)c2)c1 | inconclusive: 32.6 µM [falling, partial curve, poor fit]
O=S(Cc1ccc(Br)cc1)Cc1nnc(SCc2ccc(Cl)cc2)n1-c1ccccc1 (centres undefined) | inconclusive: 29.1 µM [falling, partial curve, poor fit]
CCOc1cc(-c2cc(-c3ccc(C)o3)nc(N)c2C#N)ccc1O | inconclusive: 25.9 µM [falling, single point]
CC(C)C[C@H](NC(=O)c1nc[nH]c1C(=O)NC(c1ccccc1)c1ccccc1)C(=O)OC(C)(C)C | inconclusive: 20.6 µM [falling, single point]
Oc1ccccc1/C=N/NC(=S)NC1CC2CC1C1C=CCC21 (centres undefined) | inconclusive: 18.4 µM [falling, partial curve, poor fit]
Cc1ccc(C(=O)c2cc([N+](=O)[O-])ccc2N2CCCCC2)cc1C | inconclusive: 18.4 µM [falling, partial curve, poor fit]
CCC(C(=O)NCc1ccco1)N(C(=O)CNS(=O)(=O)c1ccc(C)cc1)c1ccccc1OC (centres undefined) | inactive
Nc1ccc(N)c(C(=O)O)c1 | inconclusive: 20.6 µM [activator, partial curve, poor fit]
COc1ccc(C(=O)/C(C#N)=N/Nc2ccc([N+](=O)[O-])cc2)cc1 | inconclusive: 8.2 µM [falling, partial curve]
CN(C)c1ccc(C(=O)Nc2cccc(S(=O)(=O)N3CCCC3)c2)cc1 | inactive
CCOc1ccc(NC(=O)COC(=O)c2cc([N+](=O)[O-])ccc2N2CCOCC2)cc1 | inconclusive: 18.4 µM [falling, partial curve, poor fit]
